From US20250011427A1 (CONCEPT TO MEDICINE BIOTECH, published 2025)
Results are given in words; binding and its absence hold for the method and conditions named. Some binding calls cover weakened binding; strength is not graded here.

Chains of the proteins cited; added tags and fusions are not shown. Lines headed by an entry give the natural chain unless they say otherwise; changes in a name come on top.
UniProt P07766: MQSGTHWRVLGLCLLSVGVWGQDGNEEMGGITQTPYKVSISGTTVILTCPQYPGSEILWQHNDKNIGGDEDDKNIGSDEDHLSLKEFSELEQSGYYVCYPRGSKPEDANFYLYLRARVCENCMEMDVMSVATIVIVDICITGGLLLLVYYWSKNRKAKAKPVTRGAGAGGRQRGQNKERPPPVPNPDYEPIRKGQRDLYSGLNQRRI
UniProt P04234: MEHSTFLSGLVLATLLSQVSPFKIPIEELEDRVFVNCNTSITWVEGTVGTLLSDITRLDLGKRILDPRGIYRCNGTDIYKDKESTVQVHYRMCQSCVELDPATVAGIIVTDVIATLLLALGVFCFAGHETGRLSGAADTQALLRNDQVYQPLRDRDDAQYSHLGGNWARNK

B1: 155A9B1 chimeric antibody (antibody, V domains shown)
VH: QVQLKESGPGLVQPSQTLSLTCTVSGFSLTSYNVHWVRQPPGKGLEWMGRVRYNGDTSYNSALKSRLSISRDTSKNQAFLKMNSLQIDDTGTYYCTRGPYGGSSEPLFDYWGQGVMVTVSS
VL: DIKMTQSPSFLSASVGDRVTINCKASQNINKYLNWFQQKLGEAPRLLIYTTNNLQTGIPSRFSGSGSGTDFTLTISSLQPEDVATYFCLQHNSGYTFGAGTKLELK
B2: 192A7B9 chimeric antibody (antibody, V domains shown)
VH: QVQLKESGPGLVQPSQTLSLNCTVSGFSLTSYNVHWVRQPPGKGLEWMGRMRYNGDTSYNSALKSRLSISRDTSKNQVFLKMNSLQTDDTGTYYCTRGPRGGYYSALFDYWGQGVMVTVSS
VL: DIQMTQSPSFLSASVGDRVTINCKASQNINRYLNWYQQKLGDAPKVLISIANSLQTGIPSRFSGSGSGTDFTLTISSLQPEDVATYFCLQHNSWYTFGAGTKLELK
B3: Hu153A6B1-1 (antibody, V domains shown)
VH: EVQLQESGPGLVKPSETLSLTCTVSGGSISSYNIHWIRQPPGKGLEWIGRIRYNGDTSYNSALKSRVTISVDTSKNQFSLKLSSVTAADTAVYYCARGPYGGSREPLFDYWGQGTMVTVSS
VL: DIQMTQSPSSLSASVGDRVTITCKTSQNINKYLNWYQQKPGKAPKLLIYTTNNLQTGVPSRFSGSGSGTDFTLTISSLQPEDFATYYCLQHGSGYTFGQGTKLEIK
B4: Hu153A6B1-12 (antibody, V domains shown)
VH: EVQLQESGPGLVKPSETLSLTCTVSGFSLTSYNIHWVRQPPGKGLEWMGRIRYNGDTSYNSALKSRLTISRDTSKNQVSLKLSSVTAADTAVYYCTRGPYGGSREPLFDYWGQGTMVTVSS
VL: DIQMTQSPSSLSASVGDRVTITCKTSQNINKYLNWFQQKPGKAPKLLIYTTNNLQTGIPSRFSGSGSGTDFTLTISSLQPEDFATYYCLQHGSGYTFGQGTKLEIK
B5: Hu153A6B1-6 (antibody, V domains shown)
VH: EVQLQESGPGLVKPSETLSLTCTVSGFSLTSYNIHWVRQPPGKGLEWMGRIRYNGDTSYNSALKSRLTISRDTSKNQVSLKLSSVTAADTAVYYCTRGPYGGSREPLFDYWGQGTMVTVSS
VL: DIQMTQSPSSLSASVGDRVTITCKTSQNINKYLNWYQQKPGKAPKLLIYTTNNLQTGVPSRFSGSGSGTDFTLTISSLQPEDFATYYCLQHGSGYTFGQGTKLEIK
B6: Hu153A6B1-14 (antibody, V domains shown)
VH: EVQLQESGPGLVKPSETLSLTCTVSGGSISSYNIHWVRQPPGKGLEWIGRIRYNGDTSYNSALKSRVTISRDTSKNQFSLKLSSVTAADTAVYYCARGPYGGSREPLFDYWGQGTMVTVSS
VL: DIQMTQSPSSLSASVGDRVTITCKTSQNINKYLNWFQQKPGKAPKLLIYTTNNLQTGIPSRFSGSGSGTDFTLTISSLQPEDFATYFCLQHGSGYTFGQGTKLEIK
B7: Hu153A6B1-8 (antibody, V domains shown)
VH: EVQLQESGPGLVKPSETLSLTCTVSGGSISSYNIHWVRQPPGKGLEWIGRIRYNGDTSYNSALKSRVTISRDTSKNQFSLKLSSVTAADTAVYYCARGPYGGSREPLFDYWGQGTMVTVSS
VL: DIQMTQSPSSLSASVGDRVTITCKTSQNINKYLNWFQQKPGKAPKLLIYTTNNLQTGIPSRFSGSGSGTDFTLTISSLQPEDFATYYCLQHGSGYTFGQGTKLEIK
B8: Hu153A6B1-15 (antibody, V domains shown)
VH: EVQLQESGPGLVKPSETLSLTCTVSGGSISSYNIHWVRQPPGKGLEWMGRIRYNGDTSYNSALKSRLTISRDTSKNQFSLKLSSVTAADTAVYYCARGPYGGSREPLFDYWGQGTMVTVSS
VL: DIQMTQSPSSLSASVGDRVTITCKTSQNINKYLNWFQQKPGKAPKLLIYTTNNLQTGIPSRFSGSGSGTDFTLTISSLQPEDFATYFCLQHGSGYTFGQGTKLEIK
B9: Hu155A9B1-1 (antibody, V domains shown)
VH: EVQLQESGPGLVKPSETLSLTCTVSGGSISSYNVHWIRQPPGKGLEWIGRVRYNGDTSYNSALKSRVTISVDTSKNQFSLKLSSVTAADTAVYYCARGPYGGSSEPLFDYWGQGTMVTVSS
VL: DIQMTQSPSSLSASVGDRVTITCKASQNINKYLNWYQQKPGKAPRLLIYTTNNLQTGVPSRFSGSGSGTDFTLTISSLQPEDFATYYCLQHNSGYTFGQGTKLEIK
B10: Hu153A6B1-4 (antibody, V domains shown)
VH: EVQLQESGPGLVKPSETLSLTCTVSGGSISSYNIHWVRQPPGKGLEWMGRIRYNGDTSYNSALKSRLTISRDTSKNQFSLKLSSVTAADTAVYYCTRGPYGGSREPLFDYWGQGTMVTVSS
VL: DIQMTQSPSSLSASVGDRVTITCKTSQNINKYLNWYQQKPGKAPKLLIYTTNNLQTGVPSRFSGSGSGTDFTLTISSLQPEDFATYYCLQHGSGYTFGQGTKLEIK
B11: Hu153A6B1-13 (antibody, V domains shown)
VH: EVQLQESGPGLVKPSETLSLTCTVSGGSISSYNIHWIRQPPGKGLEWIGRIRYNGDTSYNSALKSRVTISVDTSKNQFSLKLSSVTAADTAVYYCARGPYGGSREPLFDYWGQGTMVTVSS
VL: DIQMTQSPSSLSASVGDRVTITCKTSQNINKYLNWFQQKPGKAPKLLIYTTNNLQTGIPSRFSGSGSGTDFTLTISSLQPEDFATYFCLQHGSGYTFGQGTKLEIK
B12: Hu153A6B1-17 (antibody, V domains shown)
VH: EVQLQESGPGLVKPSETLSLTCTVSGFSISSYNIHWVRQPPGKGLEWMGRIRYNGDTSYNSALKSRLTISRDTSKNQVSLKLSSVTAADTAVYYCTRGPYGGSREPLFDYWGQGTMVTVSS
VL: DIQMTQSPSSLSASVGDRVTITCKTSQNINKYLNWFQQKPGKAPKLLIYTTNNLQTGIPSRFSGSGSGTDFTLTISSLQPEDFATYFCLQHGSGYTFGQGTKLEIK
B13: Hu153A6B1-3 (antibody, V domains shown)
VH: EVQLQESGPGLVKPSETLSLTCTVSGGSISSYNIHWVRQPPGKGLEWMGRIRYNGDTSYNSALKSRLTISRDTSKNQFSLKLSSVTAADTAVYYCARGPYGGSREPLFDYWGQGTMVTVSS
VL: DIQMTQSPSSLSASVGDRVTITCKTSQNINKYLNWYQQKPGKAPKLLIYTTNNLQTGVPSRFSGSGSGTDFTLTISSLQPEDFATYYCLQHGSGYTFGQGTKLEIK
B14: Hu153A6B1-9 (antibody, V domains shown)
VH: EVQLQESGPGLVKPSETLSLTCTVSGGSISSYNIHWVRQPPGKGLEWMGRIRYNGDTSYNSALKSRLTISRDTSKNQFSLKLSSVTAADTAVYYCARGPYGGSREPLFDYWGQGTMVTVSS
VL: DIQMTQSPSSLSASVGDRVTITCKTSQNINKYLNWFQQKPGKAPKLLIYTTNNLQTGIPSRFSGSGSGTDFTLTISSLQPEDFATYYCLQHGSGYTFGQGTKLEIK
B15: Hu153A6B1-16 (antibody, V domains shown)
VH: EVQLQESGPGLVKPSETLSLTCTVSGGSISSYNIHWVRQPPGKGLEWMGRIRYNGDTSYNSALKSRLTISRDTSKNQFSLKLSSVTAADTAVYYCTRGPYGGSREPLFDYWGQGTMVTVSS
VL: DIQMTQSPSSLSASVGDRVTITCKTSQNINKYLNWFQQKPGKAPKLLIYTTNNLQTGIPSRFSGSGSGTDFTLTISSLQPEDFATYFCLQHGSGYTFGQGTKLEIK
B16: Hu153A6B1-10 (antibody, V domains shown)
VH: EVQLQESGPGLVKPSETLSLTCTVSGGSISSYNIHWVRQPPGKGLEWMGRIRYNGDTSYNSALKSRLTISRDTSKNQFSLKLSSVTAADTAVYYCTRGPYGGSREPLFDYWGQGTMVTVSS
VL: DIQMTQSPSSLSASVGDRVTITCKTSQNINKYLNWFQQKPGKAPKLLIYTTNNLQTGIPSRFSGSGSGTDFTLTISSLQPEDFATYYCLQHGSGYTFGQGTKLEIK
B17: Hu153A6B1-18 (antibody, V domains shown)
VH: EVQLQESGPGLVKPSETLSLTCTVSGFSLTSYNIHWVRQPPGKGLEWMGRIRYNGDTSYNSALKSRLTISRDTSKNQVSLKLSSVTAADTAVYYCTRGPYGGSREPLFDYWGQGTMVTVSS
VL: DIQMTQSPSSLSASVGDRVTITCKTSQNINKYLNWFQQKPGKAPKLLIYTTNNLQTGIPSRFSGSGSGTDFTLTISSLQPEDFATYFCLQHGSGYTFGQGTKLEIK
B18: Hu153A6B1-2 (antibody, V domains shown)
VH: EVQLQESGPGLVKPSETLSLTCTVSGGSISSYNIHWVRQPPGKGLEWIGRIRYNGDTSYNSALKSRVTISRDTSKNQFSLKLSSVTAADTAVYYCARGPYGGSREPLFDYWGQGTMVTVSS
VL: DIQMTQSPSSLSASVGDRVTITCKTSQNINKYLNWYQQKPGKAPKLLIYTTNNLQTGVPSRFSGSGSGTDFTLTISSLQPEDFATYYCLQHGSGYTFGQGTKLEIK
B19: Hu153A6B1-11 (antibody, V domains shown)
VH: EVQLQESGPGLVKPSETLSLTCTVSGFSISSYNIHWVRQPPGKGLEWMGRIRYNGDTSYNSALKSRLTISRDTSKNQVSLKLSSVTAADTAVYYCTRGPYGGSREPLFDYWGQGTMVTVSS
VL: DIQMTQSPSSLSASVGDRVTITCKTSQNINKYLNWFQQKPGKAPKLLIYTTNNLQTGIPSRFSGSGSGTDFTLTISSLQPEDFATYYCLQHGSGYTFGQGTKLEIK
B20: Hu153A6B1-5 (antibody, V domains shown)
VH: EVQLQESGPGLVKPSETLSLTCTVSGFSISSYNIHWVRQPPGKGLEWMGRIRYNGDTSYNSALKSRLTISRDTSKNQVSLKLSSVTAADTAVYYCTRGPYGGSREPLFDYWGQGTMVTVSS
VL: DIQMTQSPSSLSASVGDRVTITCKTSQNINKYLNWYQQKPGKAPKLLIYTTNNLQTGVPSRFSGSGSGTDFTLTISSLQPEDFATYYCLQHGSGYTFGQGTKLEIK
B21: Hu153A6B1-7 (antibody, V domains shown)
VH: EVQLQESGPGLVKPSETLSLTCTVSGGSISSYNIHWIRQPPGKGLEWIGRIRYNGDTSYNSALKSRVTISVDTSKNQFSLKLSSVTAADTAVYYCARGPYGGSREPLFDYWGQGTMVTVSS
VL: DIQMTQSPSSLSASVGDRVTITCKTSQNINKYLNWFQQKPGKAPKLLIYTTNNLQTGIPSRFSGSGSGTDFTLTISSLQPEDFATYYCLQHGSGYTFGQGTKLEIK

biological target: human CD3 protein (human) (UniProt P07766+P04234); assay: ELISA

binding, binds:
B1
B2
B3
B4
B5
B6
B7
B8
B9
B10
B11
B12
B13
B14
B15
B16
B17
B18
B19
B20
B21
